This is one part of the list.

Chains of the proteins cited; added tags and fusions are not shown.
UniProt Q0JBA9, entry or part of it: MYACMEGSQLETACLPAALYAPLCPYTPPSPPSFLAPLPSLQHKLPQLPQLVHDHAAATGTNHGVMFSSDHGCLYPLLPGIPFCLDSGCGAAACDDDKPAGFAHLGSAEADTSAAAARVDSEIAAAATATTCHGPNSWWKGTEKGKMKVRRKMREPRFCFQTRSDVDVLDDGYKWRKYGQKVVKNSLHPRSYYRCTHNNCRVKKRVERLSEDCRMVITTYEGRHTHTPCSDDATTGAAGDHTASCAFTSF

This assay has as its target OsWRKY34 (Oryza sativa, UniProt Q0JBA9 1-250). The experiment in a line: protein-binding microarray (RPBM); PBS, 2% BSA, 51.3 ng/ul salmon testes DNA, 50 uM zinc acetate, 200 nM TF, 25 C, 1 h; high values mean tight binding. The settings on record: protein: recombinant; tags: N-terminal polyhistidine and DsRed monomer fusion (pET32a); label: CyDye5-dUTP incorporated in the synthesized complementary strand; 3' TTTTT single-stranded linker to array surface; dsDNA, one strand shown. Put shortly: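 In PBS with 2% BSA, salmon testes DNA and 50 µM zinc acetate, 200 nM protein was incubated on a custom Agilent array at 25 °C for 1 h and then washed off. The array had been made double-stranded by primer extension with Cy5-dUTP and blocked with 2% BSA. The proteins were transcription factors fused N-terminally to polyhistidine and DsRed, expressed in E. coli BL21-CodonPlus and purified on Ni–NTA. The binding signal is per-feature fluorescence intensity (arbitrary units) from an Axon 4000B scanner.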
In the case of “TTTTCACCCACCATCCACCACCTGCCAATCTACCATACATCGGAGTCACCTAGTGCAG”, the binding signal was 10600 fluorescence intensity (a.u.).

“ATTTTTCTTTTTATATATTCCCATGCATTTATTTTATATTCGGAGTCACCTAGTGCAG”: the binding signal is 11400 fluorescence intensity (a.u.).

For “TTATCACACATTTAACCCATTGTTTTCTAATATTTACAATCGGAGTCACCTAGTGCAG”, the binding signal was 9980 fluorescence intensity (a.u.).

Take “ATTCTTATTTTTTAGCATTGTCCATATTTATATATGTGTTCGGAGTCACCTAGTGCAG”: the binding signal was 8940 fluorescence intensity (a.u.).

For “TGCATACGTACGTGAAATAACGTTATCCATGCTTAGCTTACGGAGTCACCTAGTGCAG”, the binding signal is 10200 fluorescence intensity (a.u.).

Take “ACTGCCGCACCACGTCGCACAGCGCCGCCACATCTTTCTCCGGAGTCACCTAGTGCAG”: the binding signal is 8070 fluorescence intensity (a.u.).

Turning to “CCTCCTCGGGCACTCCTCCTACCACCGTCACCACCTCGCACGGAGTCACCTAGTGCAG”, the binding signal was 8570 fluorescence intensity (a.u.).

As for “TTGGGTATGTTTGGATCATTATATTAGTCCCTGGTAGAAGCGGAGTCACCTAGTGCAG”, the binding signal was 9120 fluorescence intensity (a.u.).

Take “CGCTCACTTGCTCCTCTCGCTCTCTCTCTCCTCGAGTCTCCGGAGTCACCTAGTGCAG”: the binding signal was 8860 fluorescence intensity (a.u.).

As to “GCGGGGTTGGAGGAGGAGGAGGTGGTGGTGGTGGTGGTGGCGGAGTCACCTAGTGCAG”, the binding signal is 15300 fluorescence intensity (a.u.).

“TGACTTTTTATCATATGTTTGACCGTTCGTCTTATTCAAACGGAGTCACCTAGTGCAG”: the binding signal is 10900 fluorescence intensity (a.u.).

As to “CTTTTTTTTTTCTTTCATATTTGTATCGTTTTGGTAGGGGCGGAGTCACCTAGTGCAG”, the binding signal is 12800 fluorescence intensity (a.u.).

Take “CCCTCTCTCTATTTAAGCAAGCACATTCTCCTCTTCTTCTCGGAGTCACCTAGTGCAG”: the binding signal was 8240 fluorescence intensity (a.u.).

On to “GACAGTTCTAAGACCCATCTCTAAGGTATTACCATTGCCCCGGAGTCACCTAGTGCAG”, for which the binding signal was 8030 fluorescence intensity (a.u.).

Consider “AGTTGTGGGCCATTCTTACCGTCACTTTGTCCCAAATTTCCGGAGTCACCTAGTGCAG”, for which the binding signal is 9300 fluorescence intensity (a.u.).

On to “CTTTTTGACTGTGTAATTCCCTTGCTGTTTGTATAACATCCGGAGTCACCTAGTGCAG”, for which the binding signal was 9730 fluorescence intensity (a.u.).

As to “CCTGCTATGATTTATGGACAAGATACATTGCGTTCTCACTCGGAGTCACCTAGTGCAG”, the binding signal is 9290 fluorescence intensity (a.u.).

Consider “ATGTTCTCCACGGAGCTGTCTGGTTCTGTTTGCTTCCTATCGGAGTCACCTAGTGCAG”, for which the binding signal is 9900 fluorescence intensity (a.u.).

Turning to “GGTTTTTTTCCTGTGGTTCAATCAAACTGTTATTTCTGTACGGAGTCACCTAGTGCAG”, the binding signal is 9480 fluorescence intensity (a.u.).

As to “TCTAATATGAGCTCTTTGTTGATACACATTATTCAGAGACCGGAGTCACCTAGTGCAG”, the binding signal was 8350 fluorescence intensity (a.u.).

For the sequence “TCTTCGTCGTCGTGGTTGGCGTCCTCGTGTCCGCCCGTTGCGGAGTCACCTAGTGCAG”, the binding signal was 12600 fluorescence intensity (a.u.).

On to “GGAGAGCTCTGCTGCTTGGGGAGGGGAGGCGGAGGCGATGCGGAGTCACCTAGTGCAG”, for which the binding signal was 10600 fluorescence intensity (a.u.).

“GGTGTTTGGTTTATGAGCAGGAGTGTGATTTGAGCTCTCACGGAGTCACCTAGTGCAG”: the binding signal is 8060 fluorescence intensity (a.u.).

On to “AGTGGCAGGGGTGTGGGGATTGCCGGCTTGCCGCGGAGGACGGAGTCACCTAGTGCAG”, for which the binding signal is 11900 fluorescence intensity (a.u.).

“ACCCCGTCGCCGCCGCCATCAATGAATCCAGACGCAAACGCGGAGTCACCTAGTGCAG”: the binding signal was 9160 fluorescence intensity (a.u.).

As for “CATGCTCCACGTCCTTATGTCTCTCCAGTTTTACTGTATCCGGAGTCACCTAGTGCAG”, the binding signal is 9180 fluorescence intensity (a.u.).

Consider “TATTGATTATGGTGTCATGTCTAGCTGATGGATGACTAATCGGAGTCACCTAGTGCAG”, for which the binding signal is 8970 fluorescence intensity (a.u.).

For the sequence “CTATTCAAATCAGGCCCATTAATTTTGTCACTTTCTCTATCGGAGTCACCTAGTGCAG”, the binding signal was 9370 fluorescence intensity (a.u.).

As to “ATTCCGTCCATTCCCCTCCTGCGTACTTCCGCCGCGCGGCCGGAGTCACCTAGTGCAG”, the binding signal was 8950 fluorescence intensity (a.u.).

Turning to “TGGCGCCGTCGTTCGTCCTGTTGCTTCCGCCCGCATCCTGCGGAGTCACCTAGTGCAG”, the binding signal is 13600 fluorescence intensity (a.u.).

Turning to “CTTCTCTCAAAGTACCCGCGGAATCTCATTCGCTATATTCCGGAGTCACCTAGTGCAG”, the binding signal was 8330 fluorescence intensity (a.u.).

Regarding “CCGCCGCCGCCGCCGCCGCCGCGGCCGGATCCCACGCGCGCGGAGTCACCTAGTGCAG”, the binding signal was 8370 fluorescence intensity (a.u.).

As for “CCGCTGCTCCACCGCTACGACGCACGCCATCACACGCGCGCGGAGTCACCTAGTGCAG”, the binding signal is 9830 fluorescence intensity (a.u.).

As to “TTTCTTTTTCTTGGTTTTTTTTTGTCTTTTCTTCTTTTTCCGGAGTCACCTAGTGCAG”, the binding signal is 18200 fluorescence intensity (a.u.).

For the sequence “ATTTGTATTGTGGTCCTGTGGAGTTTGCACTGTGGAATTTCGGAGTCACCTAGTGCAG”, the binding signal was 9940 fluorescence intensity (a.u.).

Regarding “TAGTTGAGGGGCAGAGGTTTATGGTTTTGCGTATTGGGGACGGAGTCACCTAGTGCAG”, the binding signal is 12500 fluorescence intensity (a.u.).

In the case of “CTCTCGGTGCCTGTCTCCACTCATCTCCTCTCGTTCTCTCCGGAGTCACCTAGTGCAG”, the binding signal is 10400 fluorescence intensity (a.u.).

As to “TATCCATACTTGCATCTAGTCTAGCATGGGCCCCGGCCCACGGAGTCACCTAGTGCAG”, the binding signal was 8440 fluorescence intensity (a.u.).

Turning to “TTCCTCCAAATGCAACCTTTTCTGTCAATCATTGTATTTACGGAGTCACCTAGTGCAG”, the binding signal was 9060 fluorescence intensity (a.u.).

Consider “CTGATCCGCATTTTTACTCTGTTTATCCGCAAGAAAGTTTCGGAGTCACCTAGTGCAG”, for which the binding signal is 8290 fluorescence intensity (a.u.).

On to “TACACCATCCATTTTCAGTCTACGCATCCAACCTCCAAACCGGAGTCACCTAGTGCAG”, for which the binding signal was 9830 fluorescence intensity (a.u.).

As for “CACCACCATCGTATGCTTTTGCGCGTATTTCAGCTGGTGACGGAGTCACCTAGTGCAG”, the binding signal is 8150 fluorescence intensity (a.u.).

Source of the values: PMC7819943, “Rice protein-binding microarrays: a tool to detect cis-acting elements near promoter regions in rice”.
